Some of these results come from one statement about several compounds together.
What was measured:
Assay type in all cases: in vivo
Abuthilon theophrasti [1] = assay: Post-emergence herbicidal action against harmful plants; settings: application rate 80 g/ha, assessed visually after about 3 weeks vs untreated controls
Description: (§1) 2. Post-Emergence Herbicidal Action Against Harmful Plants Seeds of monocotyledonous and dicotyledonous weed and crop plants are placed in sandy loam in wood-fiber pots, covered with soil and cultivated in a greenhouse under good growth conditions. 2 to 3 weeks after sowing, the test plants are treated at the one-leaf stage. The inventive compounds formulated in the form of wettable powders (WP) or as emulsion concentrates (EC) are then sprayed onto the green parts of the plants as an aqueous suspension or emulsion at a water application rate of 600 to 800 l/ha (converted) with addition of 0.2% wetting agent. After the test plants have been left to stand in the greenhouse under optimal growth conditions for about 3 weeks, the action of the formulations is assessed visually in comparison to untreated controls (herbicidal action in percent (%): 100% activity=the plants have died, 0% activity=like control plants). Here, the compounds Nos. 1-001, 1-002, 1-004, 1-005, 1-007, 1-008, 1-014, 1-015, 1-017, 1-018, 1-020, 1-033, 1-040, 1-041, 1-043, 1-044, 1-046, 1-047, 1-053, 1-054, 1-056, 1-057, 1-059, 1-060, 1-079, 1-080, 1-082, 1-083, 1-086, 1-092, 1-093, 1-095, 1-096, 1-098, 1-099, 2-015, 3-014, 3-015, 3-017, 3-018, 3-020, 5-082, 5-095, 6-017, 7-017 and 8-014 each show, at an application rate of 80 g/ha, an activity of at least 80% against Abuthilon theophrasti, Amaranthus retroflexus and Stellaria media. The compounds Nos. 4-092, 4-093, 5-004, 5-017, 5-043 and 5-056 each show, at an application rate of 80 g/ha, an activity of at least 80% against Echinocloa crus galli, Pharbitis purpureum and Stellaria media.

Amaranthus retroflexus [2] = assay: as above; settings: application rate 80 g/ha, assessed visually after about 3 weeks vs untreated controls
Description: as §1

Stellaria media [3] = assay: as above; settings: application rate 80 g/ha, assessed visually after about 3 weeks vs untreated controls
Description: as §1

Setaria viridis = assay: Pre-emergence herbicidal action against harmful plants; settings: application rate 320 g/ha, assessed visually after 3 weeks vs untreated controls
Text: (§2) 1. Pre-Emergence Herbicidal Action Against Harmful Plants Seeds of monocotyledonous and dicotyledonous weed plants and crop plants are placed in wood-fiber pots in sandy loam and covered with soil. The compounds according to the invention, formulated in the form of wettable powders (WP) or as emulsion concentrates (EC), are then applied as aqueous suspension or emulsion at a water application rate of 600 to 800 l/ha (converted) with the addition of 0.2% of wetting agent to the surface of the covering soil. After the treatment, the pots are placed in a greenhouse and kept under good growth conditions for the test plants. The damage to the test plants is assessed visually after a test period of 3 weeks by comparison with untreated controls (herbicidal activity in percent (%): 100% activity=the plants have died, 0% activity=like control plants). Here, the compounds Nos. 1-002, 1-004, 1-007, 1-008, 1-043, 1-044, 1-046, 1-047, 1-060, 1-079, 1-080, 1-082, 1-083, 1-085, 1-095, 1-096, 1-098, 1-099, 1-059, 2-015, 3-015, 3-018, 3-020, 4-001, 4-118, 5-004, 5-017, 5-043, 5-056, 5-082, 5-095, 6-017, 7-017, 8-017 and 8-014, for example, each show, at an application rate of 320 g/ha, an activity of at least 80% against Abuthilon theophrasti and Amaranthus retroflexus. The compounds Nos. 1-001, 1-005, 1-014, 1-015, 1-017, 1-018, 1-020, 1-033, 1-040, 1-041, 1-053, 1-054, 1-056, 1-057, 1-092, 1-093, 3-014, 3-015, 8-014, 8-017 and 8-015 each show, at an application rate of 320 g/ha, an activity of at least 80% against Setaria viridis and Stellaria media. The compounds Nos. 3-017, 4-092 and 6-004 show, at an application rate of 320 g/ha, an activity of at least 80% against Amaranthus retroflexus and Veronica persica.

Stellaria media [4] = assay: as above; settings: application rate 320 g/ha, assessed visually after 3 weeks vs untreated controls
Text: as §2

Abuthilon theophrasti [5] = assay: as above; settings: application rate 320 g/ha, assessed visually after 3 weeks vs untreated controls
Text: as §2

Amaranthus retroflexus [6] = assay: as above; settings: application rate 320 g/ha, assessed visually after 3 weeks vs untreated controls
Text: as §2

Veronica persica = assay: as above; settings: application rate 320 g/ha, assessed visually after 3 weeks vs untreated controls
Pharbitis purpureum = assay: Post-emergence herbicidal action against harmful plants; settings: application rate 80 g/ha, assessed visually after about 3 weeks vs untreated controls
Echinocloa crus galli = assay: as above; settings: application rate 80 g/ha, assessed visually after about 3 weeks vs untreated controls

CC(C)CON=Cc1c(Cl)ccc(C(=O)Nc2nnnn2C)c1S(C)(=O)=O [1-033]
at least 80%: herbicidal action in percent (%) (Abuthilon theophrasti [1]) | herbicidal action in percent (%) (Amaranthus retroflexus [2]) | herbicidal action in percent (%) (Stellaria media [3]) | herbicidal activity in percent (%) (Setaria viridis) | herbicidal activity in percent (%) (Stellaria media [4])

CCn1nnnc1NC(=O)c1ccc(S(C)(=O)=O)c(C=NOCC2CC2)c1Cl [1-056]
at least 80%: herbicidal action in percent (%) (Abuthilon theophrasti [1]) | herbicidal action in percent (%) (Amaranthus retroflexus [2]) | herbicidal action in percent (%) (Stellaria media [3]) | herbicidal activity in percent (%) (Setaria viridis) | herbicidal activity in percent (%) (Stellaria media [4])

CON=Cc1c(S(C)(=O)=O)ccc(C(=O)Nc2nonc2C)c1Cl [3-014]
at least 80%: herbicidal action in percent (%) (Abuthilon theophrasti [1]) | herbicidal action in percent (%) (Amaranthus retroflexus [2]) | herbicidal action in percent (%) (Stellaria media [3]) | herbicidal activity in percent (%) (Setaria viridis) | herbicidal activity in percent (%) (Stellaria media [4])

CCON=Cc1c(S(C)(=O)=O)ccc(C(=O)Nc2nonc2C)c1Cl [3-015]
at least 80%: herbicidal action in percent (%) (Abuthilon theophrasti [1]) | herbicidal action in percent (%) (Amaranthus retroflexus [2]) | herbicidal action in percent (%) (Stellaria media [3]) | herbicidal activity in percent (%) (Abuthilon theophrasti [5]) | herbicidal activity in percent (%) (Setaria viridis) | herbicidal activity in percent (%) (Amaranthus retroflexus [6]) | herbicidal activity in percent (%) (Stellaria media [4])

Cc1nonc1NC(=O)c1ccc(S(C)(=O)=O)c(C=NOCC2CC2)c1Cl [3-017]
at least 80%: herbicidal action in percent (%) (Abuthilon theophrasti [1]) | herbicidal action in percent (%) (Amaranthus retroflexus [2]) | herbicidal action in percent (%) (Stellaria media [3]) | herbicidal activity in percent (%) (Veronica persica) | herbicidal activity in percent (%) (Amaranthus retroflexus [6])

COCc1nnc(NC(=O)c2ccc(S(C)(=O)=O)c(C=NOC)c2Cl)o1 [4-092]
at least 80%: herbicidal action in percent (%) (Pharbitis purpureum) | herbicidal action in percent (%) (Stellaria media [3]) | herbicidal activity in percent (%) (Veronica persica) | herbicidal action in percent (%) (Echinocloa crus galli) | herbicidal activity in percent (%) (Amaranthus retroflexus [6])

CCON=Cc1c(S(C)(=O)=O)ccc(C(=O)Nc2nnc(COC)o2)c1Cl [4-093]
at least 80%: herbicidal action in percent (%) (Pharbitis purpureum) | herbicidal action in percent (%) (Stellaria media [3]) | herbicidal action in percent (%) (Echinocloa crus galli)

CC(C)=NOCc1c(Cl)ccc(C(=O)Nc2nnnn2C)c1Cl [5-004]
at least 80%: herbicidal action in percent (%) (Pharbitis purpureum) | herbicidal action in percent (%) (Echinocloa crus galli)

CC(C)=NOCc1c(S(C)(=O)=O)ccc(C(=O)Nc2nnnn2C)c1Cl [5-017]
at least 80%: herbicidal action in percent (%) (Pharbitis purpureum) | herbicidal action in percent (%) (Echinocloa crus galli)

CCn1nnnc1NC(=O)c1ccc(Cl)c(CON=C(C)C)c1Cl [5-043]
at least 80%: herbicidal action in percent (%) (Pharbitis purpureum) | herbicidal action in percent (%) (Echinocloa crus galli)

CCn1nnnc1NC(=O)c1ccc(S(C)(=O)=O)c(CON=C(C)C)c1Cl [5-056]
at least 80%: herbicidal action in percent (%) (Pharbitis purpureum) | herbicidal action in percent (%) (Echinocloa crus galli)

CC(C)=NOCc1c(Cl)ccc(C(=O)Nc2ncnn2C)c1Cl [6-004]
at least 80%: herbicidal activity in percent (%) (Veronica persica)
